Assay results taken from patent publication US20200360405A1, “COMPOSITIONS AND METHODS FOR REDUCING LOCAL AND SYSTEMIC RISKS OF ENVENOMATION” (THE HENRY M. JACKSON FONDATION FOR THE ADVANCEMENT OF …, priority 2017, published 2020).
At least one compound was matched to its structure with a doubt left.

Legend:
[1] = tested on: N. kaouthia crude venom hyaluronidase; test: Hyaluronidase activity assay, N. kaouthia crude venom; assay type: biochemical, Naja naja kaouthia; settings: venom pre-incubated 5-10 minutes with increasing concentrations; Example 2
Protocol: (§1) Hyaluronidase activity was assessed using the Enzymatic Assay of Hyaluronidase (3.2.1.35) protocol from Sigma Aldrich. Briefly, equal volumes of venom were incubated with 0.03% hyaluronic acid solution (0.03% (w/v) hyaluronic acid in 300 mM sodium phosphate (approximately pH 5.35)) for 1.5 hours at 37° C. A reaction aliquot was then added to a 5-fold volume of acidic albumin solution (24 mM sodium acetate, 70 mM acetic acid, 0.1% BSA adjusted to approximately pH 3.75), allowed to stand for 10 minutes, and then absorbance at 600 nm was measured. Data was converted to percent transmission (% T) and adjusted for background signals. Venom hyaluronidase activities were determined by creating a standard curve with bovine testes hyaluronidase.
(§2) For inhibition experiments, 6.75 μg N. kaouthia or 15 μg V. russelli venom was pre-incubated with the specified spreading factor inhibitor(s) for 5-10 minutes before adding an equal volume of the reaction to the hyaluronic acid solution. Data was converted to % T, adjusted for background signals, and then normalized to the venom-only controls.
(§3) Data are shown as the mean and standard deviation (SD) of at least duplicate readings. The half maximal inhibitory concentration (IC50) values were determined using GraphPad Prism. Table 1 summarizes the inhibitory activity of various spreading factor inhibitors for N. kaouthia and V. russelli crude venom extracts. […]

[2] = tested on: V. russelli crude venom hyaluronidase; test: Hyaluronidase activity assay, V. russelli crude venom; assay type: biochemical, Vipera russelli; settings: venom pre-incubated 5-10 minutes with increasing concentrations; Example 2
Protocol: as §1, §2, §3

[3] = tested on: N. kaouthia crude venom gelatinase; test: Gelatinase activity assay (EnzChek), N. kaouthia crude venom; assay type: biochemical, Naja naja kaouthia
Protocol: (§4) EnzChek® Gelatinase/Collagenase assay kits were used according to the manufacturer's recommendations. Briefly, equal volumes of venom solutions were incubated with 1.0 mg/mL DQ gelatin and fluorometric analysis was performed for at least three hours, using excitation and emission wavelengths of 485(20) nm and 528(20) nm, respectively. Venom activity was determined by creating a standard curve with Clostridium histolyticum collagenase activity.
(§5) For inhibition experiments, 30 μg N. kaouthia or V. russelli venom was pre-incubated with the specified spreading factor inhibitor(s) for 5-10 minutes before adding an equal volume of the reaction to the 1.0 mg/mL DQ gelatin solution. Fluorometric readings were measured over the course of five hours, with the five hour time points being used to determine the percent inhibition. Data was adjusted for background signals and then normalized to the venom-only controls.
(§6) Data are shown as the mean and standard deviation (SD) of at least duplicate readings. The half maximal inhibitory concentration (IC50) values were determined using GraphPad Prism. Table 1 summarizes the inhibitory activity of various spreading factor inhibitors for N. kaouthia and V. russelli crude venom extracts.
(§7) Snake venom samples were incubated with increasing concentrations of sodium aurothiomalate and/or doxycycline for 5-10 minutes prior to assaying the venom hyaluronidase, gelatinase, and PLA2 activities. As observed in Example 1, sodium aurothiomalate inhibited N. kaouthia and V. russeiii venom hyaluronidase activities, whereas doxycycline inhibited the venom gelatinase and PLA2 activities.

[4] = tested on: V. russelli crude venom gelatinase; test: Gelatinase activity assay (EnzChek), V. russelli crude venom; assay type: biochemical, Vipera russelli
Protocol: as §4, §5, §6, §7

[5] = target: N. kaouthia crude venom PLA2; test: Phospholipase A2 activity assay (EnzChek), N. kaouthia crude venom; assay type: biochemical, Naja naja kaouthia
Protocol: (§8) EnzChek® Phospholipase A 2 assay kits were used according to the manufacturer's recommendations. Briefly, equal volumes of venom solutions were incubated with PLA2 substrate and fluorometric analysis was performed over the course of 20 minutes. Venom activity was determined by creating a standard curve based upon PLA2 from honey bee venom.
(§9) For inhibition experiments, 0.4 μg N. kaouthia or 0.2 μg V. russelli venom was pre-incubated with the specified spreading factor inhibitor(s) for 5-10 minutes before adding the reaction to an equal volume of PLA2 substrate. Fluorometric analysis was performed over 20 minutes, with the 10 minute time point values being used to determine the percent inhibition. Background values were subtracted from all samples, and data was normalized to the venom-only controls. Excitation and emission wavelengths for these experiments were 485(20) nm and 528(20) nm, respectively.
as §6, §7

[6] = target: V. russelli crude venom PLA2; test: Phospholipase A2 activity assay (EnzChek), V. russelli crude venom; assay type: biochemical, Vipera russelli
Protocol: as §8, §9, §6, §7

[7] = asterisk: data obtained according to Example 2, five hour time point
[8] = venom pre-incubated 5-10 minutes with increasing concentrations, Example 2
[9] = 30 μg venom, five hour time point, Example 1
[10] = 0.4 μg venom, 10 minute time point, Example 1
[11] = 0.2 μg venom, 10 minute time point, Example 1

SMILES: C[C@H]1c2cccc(O)c2C(=O)C2=C(O)[C@]3(O)C(=O)C(C(N)=O)=C(O)[C@@H](N(C)C)[C@@H]3[C@@H](O)[C@@H]21 [Doxycycline]
- Effect on N. kaouthia venom hyaluronidase activity (in words) [1]: significant increase
- Effect on V. russelli venom hyaluronidase activity (in words) [2]: caused an increase
- Gelatinase ≥90% inhibition (concentration), N. kaouthia venom [3, 7]: 298.62 ± 34.55 µM
- IC50 [3, 7]: 102 ± 22.8 µM
- Effect on N. kaouthia venom gelatinase activity (in words) [3, 8]: inhibited
- Gelatinase ≥90% inhibition (concentration), V. russelli venom [4, 9]: >313 µM
- IC50 [4, 9]: 128 ± 11.5 µM
- Effect on V. russelli venom gelatinase activity (in words) [4, 8]: inhibited
- IC50 [5, 10]: 243 ± 168 µM
- PLA2 ≥90% inhibition (concentration), N. kaouthia venom [5, 10]: 237.57 ± 23.78 µM
- Effect on N. kaouthia venom PLA2 activity (in words) [5, 8]: inhibited
- IC50 [6, 11]: 167 ± 59.4 µM
- PLA2 ≥90% inhibition (concentration), V. russelli venom [6, 11]: 225.23 ± 23.42 µM
- Effect on V. russelli venom PLA2 activity (in words) [6, 8]: inhibited
